Laboratory results: patent publication US20130101549A1
Results are given in words; binding and its absence hold for the method and conditions named. Some results given as binding are weak or reduced against the parent protein; the word gives no strength.

Protein sequences, listed by entry. Tags and fused reporters are not part of them. Residues count along the entry.
UniProt P70424, residues 23-653: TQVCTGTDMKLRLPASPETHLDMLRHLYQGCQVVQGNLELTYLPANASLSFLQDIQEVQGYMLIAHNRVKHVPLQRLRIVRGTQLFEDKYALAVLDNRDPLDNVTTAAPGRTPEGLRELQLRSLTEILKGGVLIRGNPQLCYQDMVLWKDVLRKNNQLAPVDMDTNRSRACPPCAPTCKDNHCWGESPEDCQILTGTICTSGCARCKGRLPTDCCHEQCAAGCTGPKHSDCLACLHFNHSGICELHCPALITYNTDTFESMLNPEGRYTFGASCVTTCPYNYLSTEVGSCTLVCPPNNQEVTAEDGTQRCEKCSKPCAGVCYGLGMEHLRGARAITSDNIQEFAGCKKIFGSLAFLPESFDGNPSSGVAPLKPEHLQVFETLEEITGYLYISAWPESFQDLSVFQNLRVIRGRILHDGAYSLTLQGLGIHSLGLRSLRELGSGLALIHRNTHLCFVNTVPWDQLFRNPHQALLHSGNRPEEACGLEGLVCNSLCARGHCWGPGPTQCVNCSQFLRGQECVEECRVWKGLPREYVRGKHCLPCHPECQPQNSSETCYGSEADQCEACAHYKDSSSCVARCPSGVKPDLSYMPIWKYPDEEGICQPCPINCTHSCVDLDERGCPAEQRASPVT
UniProt P06494, residues 23-1257: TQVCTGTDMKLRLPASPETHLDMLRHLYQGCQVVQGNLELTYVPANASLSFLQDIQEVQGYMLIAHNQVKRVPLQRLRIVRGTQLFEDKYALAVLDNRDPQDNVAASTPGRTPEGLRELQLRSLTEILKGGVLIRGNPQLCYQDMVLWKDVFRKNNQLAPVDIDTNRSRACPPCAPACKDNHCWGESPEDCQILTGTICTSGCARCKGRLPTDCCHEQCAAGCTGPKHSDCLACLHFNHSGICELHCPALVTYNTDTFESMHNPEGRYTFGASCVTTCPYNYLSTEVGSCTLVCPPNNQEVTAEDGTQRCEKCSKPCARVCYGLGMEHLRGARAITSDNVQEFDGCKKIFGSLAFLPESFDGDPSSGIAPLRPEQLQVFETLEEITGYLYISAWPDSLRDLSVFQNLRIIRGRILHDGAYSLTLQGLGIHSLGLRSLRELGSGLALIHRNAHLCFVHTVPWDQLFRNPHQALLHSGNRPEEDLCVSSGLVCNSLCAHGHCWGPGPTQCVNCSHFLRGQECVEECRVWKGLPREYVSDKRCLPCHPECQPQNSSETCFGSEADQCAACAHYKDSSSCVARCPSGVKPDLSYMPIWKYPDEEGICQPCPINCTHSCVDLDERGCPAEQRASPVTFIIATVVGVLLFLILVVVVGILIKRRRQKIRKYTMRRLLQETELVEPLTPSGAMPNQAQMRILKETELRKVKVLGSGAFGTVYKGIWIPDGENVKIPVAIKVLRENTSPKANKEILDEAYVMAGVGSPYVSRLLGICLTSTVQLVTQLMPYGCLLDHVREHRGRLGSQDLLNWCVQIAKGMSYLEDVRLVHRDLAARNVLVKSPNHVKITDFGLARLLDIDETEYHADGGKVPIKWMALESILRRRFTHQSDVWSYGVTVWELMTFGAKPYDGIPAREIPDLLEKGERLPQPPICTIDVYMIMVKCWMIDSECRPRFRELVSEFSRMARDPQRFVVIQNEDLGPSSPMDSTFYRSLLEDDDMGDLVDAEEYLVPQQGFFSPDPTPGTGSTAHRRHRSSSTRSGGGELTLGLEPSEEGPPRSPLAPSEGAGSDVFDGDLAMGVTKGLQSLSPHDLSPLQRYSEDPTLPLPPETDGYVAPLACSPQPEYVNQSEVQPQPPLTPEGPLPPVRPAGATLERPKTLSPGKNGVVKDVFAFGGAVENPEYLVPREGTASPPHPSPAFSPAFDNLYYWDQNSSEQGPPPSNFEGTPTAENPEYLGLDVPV

What was measured:
[1] = target: wild type mHER2/ErbB2 (ELISA antigen of Example 3) (mouse) (UniProt P70424); assay: ELISA
[2] = target: rat HER2 on Tubo cells (rat) (UniProt P06494); assay: FACS on Tubo cells

- binding [1]: binds
- binding [2]: binds
B1: BIIB71F10 Fab (Fab, V domains shown)
VH: EVQLLESGGGLVQPGGSLRLSCAASGFTFSSYGMVWVRQAPGKGLEWVSSISSSGGLTWYADSVKGRFTISRDNSKNTLYLQMNSLRAEDTAVYYCASPPGIAVARDYWGQGTLVTVSS
VL: DIQMTQSPSSLSASVGDRVTITCRASQGISNYLAWYQQKPGKVPKLLIYAASTLQSGVPSRFSGSGSGTDFTLTISSLQPEDVATYYCQKYNSALLTFGGGTKVEIK
